Values quoted from earlier work in patent publication US4275057A (The United States of America as represented by the …, priority 1980, dated 1981).
At least one compound was matched to its structure with a doubt left.

System: standard animal tumors
Settings: cited from earlier work

## Nc1ncnc2c1ncn2[C@@H]1O[C@H](CO)[C@@H](O)[C@@H]1O [ara-A, arabinosyladenine]
co-administered with a potent adenosine deaminase inhibitor
  anti-tumor activity when a potent inhibitor of adenosine deaminase is co-administered: excellent anti-tumor activity
Given alone
  activity against standard animal tumors: little activity
